Test results as given in publication PMC5750232, “RAD54 N-terminal domain is a DNA sensor that couples ATP hydrolysis with branch migration of Holliday junctions” (Nature Communications, 2018).
Numbering of substitutions follows the chain as printed. Weaker means in comparison with the reference protein, sequence or condition of that experiment. Tags and fusion partners may be left off the protein sequences shown.

Experiments:
[1] = target: T1, RAD54 1-142 33AAAA36 R33A,K34A,R35A,K36A (human) (UniProt Q92698); experiment: EMSA; settings: only smearing at 0.5 uM protein, 5 mM Mg2+, 2 mM ATP, 25 mM Tris-acetate pH 7.5, 5 mM Mg acetate, 100 ug/ml BSA, 2 mM DTT, 10% glycerol, 4 C, 45 min, 30 nM PX junction, 6% native PAGE in 0.25x TBE, recombinant protein, residues 1-142, protein details: Sumo-His, cleaved, label: 32P (unlabeled as competitor), folded or branched DNA
T1 sequence (looked up): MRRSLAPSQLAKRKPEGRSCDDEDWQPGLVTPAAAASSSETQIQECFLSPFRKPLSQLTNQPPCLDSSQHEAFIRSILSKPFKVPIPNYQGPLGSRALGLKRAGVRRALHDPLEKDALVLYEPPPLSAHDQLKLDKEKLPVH

RAD54 1-142 S49E (human) = target: T2, RAD54 1-142 S49E (human) (UniProt Q92698); experiment: EMSA; settings: large complexes reduced, small complexes unaffected, 5 mM Mg2+, 2 mM ATP, 25 mM Tris-acetate pH 7.5, 5 mM Mg acetate, 100 ug/ml BSA, 2 mM DTT, 10% glycerol, 4 C, 45 min, 30 nM PX junction, 6% native PAGE in 0.25x TBE, recombinant protein, residues 1-142, protein details: Sumo-His, cleaved, label: 32P (unlabeled as competitor), folded or branched DNA
T2 sequence (looked up): T1 sequence (looked up) with A33R, A34K, A35R, A36K, S49E

GACGCTGCCGAATTCTACCAGTGCCTTGCTAGGACATCTTTGCCCACCTGCAGGTTCACCC / TGGGTGAACCTGCAGGTGGGCAAAGATGTCCTAGCAATGTAATCGTCAAGCTTTATGCCGTT / CAACGGCATAAAGCTTGACGATTACATTGCTAGGACATGCTGTCTAGAGGATCCGACTATCGA / TCGATAGTCGGATCCTCTAGACAGC [non-mobile PX junction (174/175/176/181)]
binding result [1]: binds more weakly
binding result (RAD54 1-142 S49E (human)): binds more weakly
